According to the supplement of paper PMC4604168 (melanoma cell lines):
Some of the results follow. Single values are uncertain, as repeats are few or missing.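 Imaging used 1,536-well plates; nuclei positive for cleaved PARP by antibody were divided by total DNA-stained nuclei to yield the apoptosis fraction. Doses for screening kept most cells viable, and cell lines differ markedly in resting and induced cleaved-PARP levels.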

Columns and labels:
Test in all cases: cleaved PARP positive nuclei fraction relative to DMSO control; melanoma cells; higher = more apoptosis
Details in all cases: library dose: low library concentration; 72 h
[1] = test system: CBRC034 (line from a melanoma biopsy)
[2] = test system: COLO792
[3] = test system: COLO800
[4] = test system: COLO829
[5] = test system: G361
[6] = test system: IPC-298
[7] = test system: IST-MEL1
[8] = test system: LB2518-MEL
[9] = test system: LOXIMVI
[10] = test system: MEL-HO

Row | Compound | cleaved PARP positive nuclei fraction [1] [%] | cleaved PARP positive nuclei fraction [2] [%] | cleaved PARP positive nuclei fraction [3] [%] | cleaved PARP positive nuclei fraction [4] [%] | cleaved PARP positive nuclei fraction [5] [%] | cleaved PARP positive nuclei fraction [6] [%] | cleaved PARP positive nuclei fraction [7] [%] | cleaved PARP positive nuclei fraction [8] [%] | cleaved PARP positive nuclei fraction [9] [%] | cleaved PARP positive nuclei fraction [10] [%]
1 | Nc1ncn([C@H]2C[C@H](O)[C@@H](CO)O2)c(=O)n1 [decitabine] + C[As](C)SC[C@H](NC(=O)CC[C@H](N)C(=O)O)C(=O)NCC(=O)O [Darinaparsin] (first compound 0.1 µM, partner dose 0.4 µM) | 263 | 132 | 83.5 | 87.8 | 198 | 46.3 | 34.1 | 112 | 64 | 88.6
2 | CCCCCCCCc1ccc(CCC(N)(CO)CO)cc1 [fingolimod] + N.N.[Cl][Pt][Cl] [cisplatin] (first compound 2 µM, partner dose 1.6 µM) | 33.1 | 48.4 | 77.7 | 68.4 | 116 | 123 | 71.5 | 103 | 218 | 60.9
3 | N#CC[C@H](C1CCCC1)n1cc(-c2ncnc3[nH]ccc23)cn1 [ruxolitinib] + Cn1cc(C2=C(c3cn(C4CCN(Cc5ccccn5)CC4)c4ccccc34)C(=O)NC2=O)c2ccccc21 [Enzastaurin] (first compound 1 µM, partner dose 0.8 µM) | 66.3 | 79.5 | 75.3 | 79.7 | 155 | 56.4 | 112 | 107 | 170 | 41.3
4 | O=C(Nc1cc(C(F)(F)F)cc(C(F)(F)F)c1)c1cc(Cl)ccc1O + N.N.[Cl][Pt][Cl] [cisplatin] (first compound 0.016 µM, partner dose 1.6 µM) | 34 | 169 | 85.2 | 41.4 | 179 | 44.3 | 128 | 108 | 115 | 148
5 | Cn1cc(C2=C(c3cn(C4CCN(Cc5ccccn5)CC4)c4ccccc34)C(=O)NC2=O)c2ccccc21 [Enzastaurin] + C[As](C)SC[C@H](NC(=O)CC[C@H](N)C(=O)O)C(=O)NCC(=O)O [Darinaparsin] (first compound 0.8 µM, partner dose 0.4 µM) | 70 | 72.5 | 65.9 | 115 | 109 | 125 | 108 | 204 | 94.7 | 180
6 | Cc1cn(-c2cc(NC(=O)c3ccc(C)c(Nc4nccc(-c5cccnc5)n4)c3)cc(C(F)(F)F)c2)cn1 [nilotinib] + Cn1cc(C2=C(c3cn(C4CCN(Cc5ccccn5)CC4)c4ccccc34)C(=O)NC2=O)c2ccccc21 [Enzastaurin] (first compound 0.2 µM, partner dose 0.8 µM) | 69.4 | 53.2 | 110 | 158 | 89 | 179 | 248 | 107 | 237 | 100
7 | CNC(=O)c1cc(Oc2ccc(NC(=O)Nc3ccc(Cl)c(C(F)(F)F)c3)cc2)ccn1 [sorafenib] + C[As](C)SC[C@H](NC(=O)CC[C@H](N)C(=O)O)C(=O)NCC(=O)O [Darinaparsin] (first compound 0.4 µM, partner dose 0.4 µM) | 81.8 | 81.1 | 158 | 111 | 112 | 101 | 39.5 | 124 | 371 | 87.6
8 | Cn1cnc2c(F)c(Nc3ccc(Br)cc3Cl)c(C(=O)NOCCO)cc21 [selumetinib] + C[As](C)SC[C@H](NC(=O)CC[C@H](N)C(=O)O)C(=O)NCC(=O)O [Darinaparsin] (first compound 0.015 µM, partner dose 0.4 µM) | 169 | 89.6 | 232 | 87.6 | 77.1 | 51.2 | 62.3 | 162 | 33.2 | 84.4
9 | CC1(C)CCC(c2ccc(Cl)cc2)=C(CN2CCN(c3ccc(C(=O)NS(=O)(=O)c4ccc(N[C@H](CCN5CCOCC5)CSc5ccccc5)c(S(=O)(=O)C(F)(F)F)c4)cc3)CC2)C1 + C[As](C)SC[C@H](NC(=O)CC[C@H](N)C(=O)O)C(=O)NCC(=O)O [Darinaparsin] (first compound 0.4 µM, partner dose 0.4 µM) | 261 | 190 | 47.8 | 85.7 | 123 | 83.7 | 137 | 208 | 113 | 155
10 | CCN(CC)CCNC(=O)c1c(C)[nH]c(/C=C2\C(=O)Nc3ccc(F)cc32)c1C [sunitinib] + C[As](C)SC[C@H](NC(=O)CC[C@H](N)C(=O)O)C(=O)NCC(=O)O [Darinaparsin] (first compound 0.4 µM, partner dose 0.4 µM) | 72.9 | 93.1 | 148 | 126 | 85.4 | 46.3 | 40.9 | 116 | 182 | 145

A few values from above.
CCN(CC)CCNC(=O)c1c(C)[nH]c(/C=C2\C(=O)Nc3ccc(F)cc32)c1C [sunitinib] + C[As](C)SC[C@H](NC(=O)CC[C@H](N)C(=O)O)C(=O)NCC(=O)O [Darinaparsin] (first compound 0.4 µM, partner dose 0.4 µM) | cleaved PARP positive nuclei fraction [1] [%]: 72.9
CNC(=O)c1cc(Oc2ccc(NC(=O)Nc3ccc(Cl)c(C(F)(F)F)c3)cc2)ccn1 [sorafenib] + C[As](C)SC[C@H](NC(=O)CC[C@H](N)C(=O)O)C(=O)NCC(=O)O [Darinaparsin] (first compound 0.4 µM, partner dose 0.4 µM) | cleaved PARP positive nuclei fraction [2] [%]: 81.1
